According to the supplement of paper PMC12067093, “Discovery and optimisation of a covalent ligand for TRIM25 and its application to targeted protein ubiquitination” (Chemical Science, 2025):
This is one part of the list.

Amino acid sequences for entries named in this document (tags omitted). A change or cut given only in a name is not applied to a line headed by its entry.
UniProt O75153: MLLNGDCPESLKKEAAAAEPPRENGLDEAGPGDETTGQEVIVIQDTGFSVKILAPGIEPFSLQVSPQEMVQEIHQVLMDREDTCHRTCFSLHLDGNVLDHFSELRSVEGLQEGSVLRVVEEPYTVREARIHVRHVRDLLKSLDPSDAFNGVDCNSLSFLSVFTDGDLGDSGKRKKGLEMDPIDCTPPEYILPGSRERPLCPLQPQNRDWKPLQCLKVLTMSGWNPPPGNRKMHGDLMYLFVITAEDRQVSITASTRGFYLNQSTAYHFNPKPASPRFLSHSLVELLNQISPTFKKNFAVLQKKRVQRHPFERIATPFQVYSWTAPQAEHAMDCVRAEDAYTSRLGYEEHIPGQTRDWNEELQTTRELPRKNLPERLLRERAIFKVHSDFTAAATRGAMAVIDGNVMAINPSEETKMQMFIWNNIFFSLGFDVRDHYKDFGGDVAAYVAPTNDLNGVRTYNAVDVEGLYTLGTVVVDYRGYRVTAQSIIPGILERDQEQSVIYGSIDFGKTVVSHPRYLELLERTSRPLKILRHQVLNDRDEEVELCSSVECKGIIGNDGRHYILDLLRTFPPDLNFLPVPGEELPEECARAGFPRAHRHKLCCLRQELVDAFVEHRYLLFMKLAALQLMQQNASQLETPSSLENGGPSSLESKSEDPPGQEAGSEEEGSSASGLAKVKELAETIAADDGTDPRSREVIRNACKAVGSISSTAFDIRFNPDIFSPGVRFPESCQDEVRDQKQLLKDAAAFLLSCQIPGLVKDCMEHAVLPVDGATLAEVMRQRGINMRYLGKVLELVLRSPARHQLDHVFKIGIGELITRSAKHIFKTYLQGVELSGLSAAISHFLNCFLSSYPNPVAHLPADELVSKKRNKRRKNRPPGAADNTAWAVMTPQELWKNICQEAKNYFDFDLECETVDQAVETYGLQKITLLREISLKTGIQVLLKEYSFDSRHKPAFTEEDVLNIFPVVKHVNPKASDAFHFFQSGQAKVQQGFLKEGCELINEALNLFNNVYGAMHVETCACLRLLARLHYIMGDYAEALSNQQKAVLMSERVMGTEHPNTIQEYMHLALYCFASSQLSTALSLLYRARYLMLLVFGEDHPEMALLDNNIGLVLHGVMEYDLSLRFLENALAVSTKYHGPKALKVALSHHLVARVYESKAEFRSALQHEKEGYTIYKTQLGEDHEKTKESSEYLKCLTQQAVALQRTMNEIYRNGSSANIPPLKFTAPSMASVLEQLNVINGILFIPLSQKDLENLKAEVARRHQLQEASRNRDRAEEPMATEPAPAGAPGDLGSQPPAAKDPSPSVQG
UniProt Q9P2D1: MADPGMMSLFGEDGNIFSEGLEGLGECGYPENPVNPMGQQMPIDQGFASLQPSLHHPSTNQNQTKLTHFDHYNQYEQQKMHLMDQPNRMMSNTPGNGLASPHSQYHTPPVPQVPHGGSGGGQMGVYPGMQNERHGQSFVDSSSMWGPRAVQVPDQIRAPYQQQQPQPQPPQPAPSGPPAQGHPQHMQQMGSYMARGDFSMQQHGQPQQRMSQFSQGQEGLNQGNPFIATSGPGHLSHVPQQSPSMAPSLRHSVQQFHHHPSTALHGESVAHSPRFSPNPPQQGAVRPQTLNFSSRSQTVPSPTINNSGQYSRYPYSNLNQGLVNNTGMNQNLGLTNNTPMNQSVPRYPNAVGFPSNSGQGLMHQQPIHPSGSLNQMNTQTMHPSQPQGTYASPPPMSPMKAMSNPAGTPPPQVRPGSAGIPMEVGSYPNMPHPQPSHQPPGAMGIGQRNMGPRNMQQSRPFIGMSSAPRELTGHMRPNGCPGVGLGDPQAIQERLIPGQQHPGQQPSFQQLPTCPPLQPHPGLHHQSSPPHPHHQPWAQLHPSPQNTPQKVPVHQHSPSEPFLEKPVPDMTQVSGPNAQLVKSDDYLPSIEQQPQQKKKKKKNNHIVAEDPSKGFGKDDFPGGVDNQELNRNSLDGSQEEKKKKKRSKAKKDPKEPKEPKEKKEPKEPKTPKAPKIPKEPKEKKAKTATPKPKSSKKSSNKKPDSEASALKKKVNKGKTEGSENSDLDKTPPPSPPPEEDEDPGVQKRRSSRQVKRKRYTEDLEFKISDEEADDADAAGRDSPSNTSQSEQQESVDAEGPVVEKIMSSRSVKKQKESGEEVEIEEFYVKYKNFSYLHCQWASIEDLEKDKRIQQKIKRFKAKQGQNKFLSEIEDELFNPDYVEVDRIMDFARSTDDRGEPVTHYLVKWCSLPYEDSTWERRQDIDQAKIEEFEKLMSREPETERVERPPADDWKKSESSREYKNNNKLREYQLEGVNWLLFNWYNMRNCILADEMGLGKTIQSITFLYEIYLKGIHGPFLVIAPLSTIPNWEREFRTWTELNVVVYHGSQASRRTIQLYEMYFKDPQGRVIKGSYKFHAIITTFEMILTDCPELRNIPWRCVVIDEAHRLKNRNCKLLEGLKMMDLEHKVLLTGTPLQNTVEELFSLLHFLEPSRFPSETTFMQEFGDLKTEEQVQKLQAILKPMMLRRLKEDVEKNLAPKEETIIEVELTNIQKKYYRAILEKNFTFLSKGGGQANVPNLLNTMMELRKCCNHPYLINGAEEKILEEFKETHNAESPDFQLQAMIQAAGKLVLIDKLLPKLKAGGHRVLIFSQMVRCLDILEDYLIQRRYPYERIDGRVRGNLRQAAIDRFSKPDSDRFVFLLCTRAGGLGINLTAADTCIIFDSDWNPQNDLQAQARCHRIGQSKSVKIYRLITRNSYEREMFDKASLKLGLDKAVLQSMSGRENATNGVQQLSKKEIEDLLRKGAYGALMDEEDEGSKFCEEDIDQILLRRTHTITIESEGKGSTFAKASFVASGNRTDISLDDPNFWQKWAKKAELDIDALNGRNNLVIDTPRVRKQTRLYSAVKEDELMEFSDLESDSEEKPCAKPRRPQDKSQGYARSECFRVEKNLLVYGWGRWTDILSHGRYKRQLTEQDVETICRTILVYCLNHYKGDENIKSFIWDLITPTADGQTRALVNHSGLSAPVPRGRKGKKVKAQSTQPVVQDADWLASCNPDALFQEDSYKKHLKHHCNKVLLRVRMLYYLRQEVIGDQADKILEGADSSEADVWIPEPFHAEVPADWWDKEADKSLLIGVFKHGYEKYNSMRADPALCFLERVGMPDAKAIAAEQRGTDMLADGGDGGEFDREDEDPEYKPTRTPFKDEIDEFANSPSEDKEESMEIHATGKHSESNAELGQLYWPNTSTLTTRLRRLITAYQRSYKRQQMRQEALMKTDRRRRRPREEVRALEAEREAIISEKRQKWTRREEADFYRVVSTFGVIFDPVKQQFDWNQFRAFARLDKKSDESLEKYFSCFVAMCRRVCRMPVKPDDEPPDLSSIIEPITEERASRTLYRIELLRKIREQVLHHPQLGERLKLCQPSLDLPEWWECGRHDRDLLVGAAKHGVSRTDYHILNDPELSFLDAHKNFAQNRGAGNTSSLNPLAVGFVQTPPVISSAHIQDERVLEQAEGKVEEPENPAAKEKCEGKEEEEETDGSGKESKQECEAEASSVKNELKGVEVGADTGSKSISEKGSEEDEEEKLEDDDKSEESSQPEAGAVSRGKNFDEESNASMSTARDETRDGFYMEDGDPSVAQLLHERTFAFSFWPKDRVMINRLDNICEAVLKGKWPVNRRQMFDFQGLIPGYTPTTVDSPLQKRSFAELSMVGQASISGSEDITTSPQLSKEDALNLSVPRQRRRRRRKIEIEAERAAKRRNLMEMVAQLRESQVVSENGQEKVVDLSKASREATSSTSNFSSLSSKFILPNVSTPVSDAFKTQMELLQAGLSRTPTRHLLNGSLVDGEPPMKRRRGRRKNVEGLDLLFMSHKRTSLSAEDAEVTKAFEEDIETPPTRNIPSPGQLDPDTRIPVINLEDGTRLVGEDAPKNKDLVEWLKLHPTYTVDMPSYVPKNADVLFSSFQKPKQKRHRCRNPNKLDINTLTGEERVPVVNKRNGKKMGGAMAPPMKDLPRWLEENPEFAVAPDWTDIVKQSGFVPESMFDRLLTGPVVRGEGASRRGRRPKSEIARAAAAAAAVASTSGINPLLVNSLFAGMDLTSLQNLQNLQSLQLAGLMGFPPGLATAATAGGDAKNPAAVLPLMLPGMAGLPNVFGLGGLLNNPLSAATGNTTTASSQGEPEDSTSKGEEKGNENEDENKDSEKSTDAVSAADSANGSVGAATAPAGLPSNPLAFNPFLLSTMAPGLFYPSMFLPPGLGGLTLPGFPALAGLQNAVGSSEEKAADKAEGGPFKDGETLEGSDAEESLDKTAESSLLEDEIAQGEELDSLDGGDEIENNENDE

Compound: Cc1cc(ccc1-c1ccccc1)C(=O)N1CCCN(CC1)C(=O)CCl [compound 10]
Assay: probe-labelled cysteine peptide fold change vs DMSO (competition) (log2 fold change); higher = less target engagement (more negative = stronger competition)
Conditions: THP-1, incubation time: 4 h
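Also: competitive profiling in live THP-1 cells: cysteine peptides tagged with an iodoacetamide desthiobiotin (IA-DTB) probe, intensity after compound treatment relative to DMSO-treated cells.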

Row | Target | probe-labelled cysteine peptide fold change (10 µM) | probe-labelled cysteine peptide fold change (50 µM)
1 | CLUH_O75153_588_TFPPDLNFLPVPGEELPEECAR (UniProt O75153) | 0.173 | 0.292
2 | CIP2A_Q8TCG1_615_DQICDVR (UniProt Q8TCG1) | -0.273 | -0.704
3 | CHD7_Q9P2D1_1101_CVVIDEAHR (UniProt Q9P2D1) | -0.0182 | 0.161
